Test results published in the supplement of paper PMC10849652.
Some of the results follow. Residues, ends and D or L forms follow the SMILES beside them. *: point of attachment. Cbz = O=C(OCc1ccccc1)*

Protein sequences, listed by entry. Tags and fused reporters are not part of them. Lines headed by an entry give the natural chain unless they say otherwise; changes in a name come on top.
UniProt Q8NB49: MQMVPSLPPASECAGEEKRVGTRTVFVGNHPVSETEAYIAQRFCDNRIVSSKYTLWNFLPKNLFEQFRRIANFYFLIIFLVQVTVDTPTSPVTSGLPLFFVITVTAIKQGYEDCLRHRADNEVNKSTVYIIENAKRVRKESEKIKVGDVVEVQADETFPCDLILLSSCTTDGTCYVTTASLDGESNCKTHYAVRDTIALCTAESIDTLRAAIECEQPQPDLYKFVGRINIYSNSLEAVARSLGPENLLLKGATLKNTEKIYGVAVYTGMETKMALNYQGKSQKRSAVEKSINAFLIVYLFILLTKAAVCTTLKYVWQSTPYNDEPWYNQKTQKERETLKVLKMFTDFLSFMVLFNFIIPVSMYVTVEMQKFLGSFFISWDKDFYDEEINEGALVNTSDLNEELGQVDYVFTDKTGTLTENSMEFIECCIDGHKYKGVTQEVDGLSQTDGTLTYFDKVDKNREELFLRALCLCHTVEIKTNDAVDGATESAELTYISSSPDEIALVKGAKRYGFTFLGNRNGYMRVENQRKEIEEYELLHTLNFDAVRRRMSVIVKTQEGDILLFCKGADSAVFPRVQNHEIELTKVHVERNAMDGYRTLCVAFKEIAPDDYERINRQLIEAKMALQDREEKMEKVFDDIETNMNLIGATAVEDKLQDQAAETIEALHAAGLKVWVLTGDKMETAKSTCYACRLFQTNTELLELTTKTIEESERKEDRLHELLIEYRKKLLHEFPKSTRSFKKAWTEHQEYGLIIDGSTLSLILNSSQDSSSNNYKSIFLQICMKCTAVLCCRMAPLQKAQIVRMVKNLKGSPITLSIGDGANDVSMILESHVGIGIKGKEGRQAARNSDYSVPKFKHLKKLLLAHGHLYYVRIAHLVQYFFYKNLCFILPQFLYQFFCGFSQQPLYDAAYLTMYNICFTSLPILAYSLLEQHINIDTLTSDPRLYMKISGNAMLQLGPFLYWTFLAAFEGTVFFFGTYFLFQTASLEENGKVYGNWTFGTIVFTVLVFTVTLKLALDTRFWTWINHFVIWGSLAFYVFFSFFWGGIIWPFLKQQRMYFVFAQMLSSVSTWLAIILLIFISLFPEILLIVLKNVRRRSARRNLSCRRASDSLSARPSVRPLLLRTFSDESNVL
UniProt Q8N3C0, whole entry, looked up: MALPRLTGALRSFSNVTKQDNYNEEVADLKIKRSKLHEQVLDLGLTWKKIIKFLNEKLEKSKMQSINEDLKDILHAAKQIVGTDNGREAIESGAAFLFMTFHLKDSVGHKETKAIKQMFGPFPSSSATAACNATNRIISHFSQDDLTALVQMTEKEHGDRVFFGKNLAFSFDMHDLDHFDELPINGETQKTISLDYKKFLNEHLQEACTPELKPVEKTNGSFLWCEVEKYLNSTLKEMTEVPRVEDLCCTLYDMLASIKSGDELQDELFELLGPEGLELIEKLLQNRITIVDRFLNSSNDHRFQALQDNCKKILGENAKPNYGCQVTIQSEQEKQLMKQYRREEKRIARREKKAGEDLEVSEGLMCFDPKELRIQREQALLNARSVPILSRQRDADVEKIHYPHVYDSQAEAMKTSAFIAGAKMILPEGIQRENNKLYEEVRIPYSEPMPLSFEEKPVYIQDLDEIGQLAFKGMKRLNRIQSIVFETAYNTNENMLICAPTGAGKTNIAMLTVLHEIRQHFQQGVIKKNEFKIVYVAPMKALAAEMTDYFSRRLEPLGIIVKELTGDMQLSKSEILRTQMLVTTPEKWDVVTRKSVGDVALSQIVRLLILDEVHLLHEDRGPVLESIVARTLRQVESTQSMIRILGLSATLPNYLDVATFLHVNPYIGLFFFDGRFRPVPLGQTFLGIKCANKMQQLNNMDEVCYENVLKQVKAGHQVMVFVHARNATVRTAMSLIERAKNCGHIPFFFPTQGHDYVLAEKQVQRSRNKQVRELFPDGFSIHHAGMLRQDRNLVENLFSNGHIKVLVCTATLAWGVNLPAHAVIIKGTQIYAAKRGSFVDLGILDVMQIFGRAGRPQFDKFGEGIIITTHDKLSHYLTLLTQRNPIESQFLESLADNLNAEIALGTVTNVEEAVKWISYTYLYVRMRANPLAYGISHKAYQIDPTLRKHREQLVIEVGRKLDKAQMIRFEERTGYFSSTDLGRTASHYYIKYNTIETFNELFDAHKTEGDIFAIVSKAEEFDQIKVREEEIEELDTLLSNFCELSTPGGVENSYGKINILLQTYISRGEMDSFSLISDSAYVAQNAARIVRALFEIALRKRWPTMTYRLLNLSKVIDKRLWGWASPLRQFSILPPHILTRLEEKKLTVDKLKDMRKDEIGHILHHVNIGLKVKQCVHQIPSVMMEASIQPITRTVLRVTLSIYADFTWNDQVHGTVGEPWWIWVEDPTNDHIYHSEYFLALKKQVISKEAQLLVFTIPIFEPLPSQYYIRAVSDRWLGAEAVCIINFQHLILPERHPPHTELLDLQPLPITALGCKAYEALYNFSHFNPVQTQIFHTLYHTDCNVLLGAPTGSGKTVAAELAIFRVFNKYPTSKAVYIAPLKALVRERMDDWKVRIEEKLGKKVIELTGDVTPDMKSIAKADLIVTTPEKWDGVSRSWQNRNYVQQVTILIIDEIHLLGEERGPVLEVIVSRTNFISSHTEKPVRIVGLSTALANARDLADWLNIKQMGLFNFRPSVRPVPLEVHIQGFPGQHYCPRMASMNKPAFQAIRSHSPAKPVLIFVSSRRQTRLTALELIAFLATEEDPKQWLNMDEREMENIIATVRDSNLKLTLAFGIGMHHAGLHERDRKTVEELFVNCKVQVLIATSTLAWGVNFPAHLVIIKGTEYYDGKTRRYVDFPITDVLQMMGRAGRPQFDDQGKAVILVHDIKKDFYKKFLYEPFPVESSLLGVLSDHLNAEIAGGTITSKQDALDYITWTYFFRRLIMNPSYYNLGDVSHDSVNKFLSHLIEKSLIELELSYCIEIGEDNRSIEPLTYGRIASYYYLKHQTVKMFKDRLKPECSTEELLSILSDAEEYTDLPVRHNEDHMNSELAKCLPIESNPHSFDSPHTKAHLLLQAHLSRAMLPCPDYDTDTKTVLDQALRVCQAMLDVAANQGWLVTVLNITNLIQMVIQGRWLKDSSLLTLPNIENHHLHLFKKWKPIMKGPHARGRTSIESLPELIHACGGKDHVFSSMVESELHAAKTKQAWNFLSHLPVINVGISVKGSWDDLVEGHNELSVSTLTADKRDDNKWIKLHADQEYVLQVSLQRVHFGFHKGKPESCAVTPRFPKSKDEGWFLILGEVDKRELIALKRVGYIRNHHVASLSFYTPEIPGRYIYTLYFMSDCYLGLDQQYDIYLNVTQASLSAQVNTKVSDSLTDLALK
UniProt P27540, whole entry, looked up: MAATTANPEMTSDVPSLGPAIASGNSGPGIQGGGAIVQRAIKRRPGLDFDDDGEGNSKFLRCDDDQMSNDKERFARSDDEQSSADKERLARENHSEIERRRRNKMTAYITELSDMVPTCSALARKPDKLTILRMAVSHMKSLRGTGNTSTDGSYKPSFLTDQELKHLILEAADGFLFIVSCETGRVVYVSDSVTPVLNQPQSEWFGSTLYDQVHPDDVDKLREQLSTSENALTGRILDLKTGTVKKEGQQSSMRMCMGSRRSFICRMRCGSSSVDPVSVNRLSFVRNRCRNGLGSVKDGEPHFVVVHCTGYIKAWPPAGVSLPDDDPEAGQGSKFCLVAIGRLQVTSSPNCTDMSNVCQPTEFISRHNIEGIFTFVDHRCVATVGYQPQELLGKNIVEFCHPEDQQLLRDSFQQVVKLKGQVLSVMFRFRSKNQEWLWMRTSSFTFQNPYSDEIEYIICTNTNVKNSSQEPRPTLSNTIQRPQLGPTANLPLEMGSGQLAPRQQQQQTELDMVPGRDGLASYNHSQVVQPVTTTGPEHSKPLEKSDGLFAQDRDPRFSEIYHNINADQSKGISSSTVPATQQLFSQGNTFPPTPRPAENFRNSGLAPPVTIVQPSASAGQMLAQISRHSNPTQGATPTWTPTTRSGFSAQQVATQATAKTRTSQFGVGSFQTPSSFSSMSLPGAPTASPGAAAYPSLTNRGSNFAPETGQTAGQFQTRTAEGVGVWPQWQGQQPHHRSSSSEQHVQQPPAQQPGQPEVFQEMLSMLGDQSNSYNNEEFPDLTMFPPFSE
UniProt O75348, whole entry, looked up: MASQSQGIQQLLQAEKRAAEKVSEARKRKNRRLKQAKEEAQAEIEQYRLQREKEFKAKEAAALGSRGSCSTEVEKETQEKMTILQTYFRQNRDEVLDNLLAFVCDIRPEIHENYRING
UniProt Q9BPX5, whole entry, looked up: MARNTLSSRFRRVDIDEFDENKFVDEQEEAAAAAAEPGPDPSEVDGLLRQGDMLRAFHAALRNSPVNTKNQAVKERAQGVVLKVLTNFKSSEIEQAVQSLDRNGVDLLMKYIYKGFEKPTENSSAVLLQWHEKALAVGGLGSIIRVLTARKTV
UniProt P56378: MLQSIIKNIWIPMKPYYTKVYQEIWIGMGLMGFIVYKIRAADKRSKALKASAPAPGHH
UniProt O95671: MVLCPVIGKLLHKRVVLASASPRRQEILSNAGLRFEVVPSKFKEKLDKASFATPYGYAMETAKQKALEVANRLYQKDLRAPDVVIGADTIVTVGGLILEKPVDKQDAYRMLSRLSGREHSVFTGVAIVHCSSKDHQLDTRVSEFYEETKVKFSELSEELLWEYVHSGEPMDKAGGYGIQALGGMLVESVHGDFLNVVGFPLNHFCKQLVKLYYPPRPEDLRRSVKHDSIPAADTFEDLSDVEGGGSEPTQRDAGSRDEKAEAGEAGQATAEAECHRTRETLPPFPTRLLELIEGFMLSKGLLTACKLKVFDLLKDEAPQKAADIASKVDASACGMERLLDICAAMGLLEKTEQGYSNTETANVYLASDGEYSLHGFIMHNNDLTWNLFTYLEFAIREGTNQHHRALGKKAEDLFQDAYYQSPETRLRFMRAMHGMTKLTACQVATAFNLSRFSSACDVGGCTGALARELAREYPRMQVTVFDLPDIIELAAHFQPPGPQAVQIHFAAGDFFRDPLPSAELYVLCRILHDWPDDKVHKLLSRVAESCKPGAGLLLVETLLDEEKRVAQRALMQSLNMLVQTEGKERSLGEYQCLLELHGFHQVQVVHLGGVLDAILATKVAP
UniProt P56134: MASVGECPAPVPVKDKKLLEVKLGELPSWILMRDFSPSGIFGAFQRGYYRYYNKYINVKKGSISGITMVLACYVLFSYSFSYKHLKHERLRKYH
UniProt O75915: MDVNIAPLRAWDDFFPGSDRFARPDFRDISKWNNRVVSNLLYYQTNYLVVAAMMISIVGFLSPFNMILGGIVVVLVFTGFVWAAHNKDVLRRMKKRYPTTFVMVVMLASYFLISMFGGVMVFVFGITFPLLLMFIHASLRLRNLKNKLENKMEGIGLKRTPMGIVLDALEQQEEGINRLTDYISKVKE
UniProt P21281, whole entry, looked up: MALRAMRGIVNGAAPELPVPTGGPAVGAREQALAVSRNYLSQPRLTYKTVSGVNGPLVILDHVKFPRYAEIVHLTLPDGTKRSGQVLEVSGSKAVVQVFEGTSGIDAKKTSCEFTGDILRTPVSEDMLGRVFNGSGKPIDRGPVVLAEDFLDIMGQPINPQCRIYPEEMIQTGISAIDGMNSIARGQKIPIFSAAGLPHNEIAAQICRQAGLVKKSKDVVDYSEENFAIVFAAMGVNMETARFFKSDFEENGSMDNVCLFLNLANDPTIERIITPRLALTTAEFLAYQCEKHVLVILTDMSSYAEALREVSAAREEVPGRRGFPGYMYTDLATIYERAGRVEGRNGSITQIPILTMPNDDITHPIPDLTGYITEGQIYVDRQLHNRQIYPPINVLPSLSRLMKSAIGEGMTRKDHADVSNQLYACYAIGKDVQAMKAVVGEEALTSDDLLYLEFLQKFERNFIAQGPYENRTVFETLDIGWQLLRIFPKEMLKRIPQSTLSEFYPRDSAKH
UniProt P25705: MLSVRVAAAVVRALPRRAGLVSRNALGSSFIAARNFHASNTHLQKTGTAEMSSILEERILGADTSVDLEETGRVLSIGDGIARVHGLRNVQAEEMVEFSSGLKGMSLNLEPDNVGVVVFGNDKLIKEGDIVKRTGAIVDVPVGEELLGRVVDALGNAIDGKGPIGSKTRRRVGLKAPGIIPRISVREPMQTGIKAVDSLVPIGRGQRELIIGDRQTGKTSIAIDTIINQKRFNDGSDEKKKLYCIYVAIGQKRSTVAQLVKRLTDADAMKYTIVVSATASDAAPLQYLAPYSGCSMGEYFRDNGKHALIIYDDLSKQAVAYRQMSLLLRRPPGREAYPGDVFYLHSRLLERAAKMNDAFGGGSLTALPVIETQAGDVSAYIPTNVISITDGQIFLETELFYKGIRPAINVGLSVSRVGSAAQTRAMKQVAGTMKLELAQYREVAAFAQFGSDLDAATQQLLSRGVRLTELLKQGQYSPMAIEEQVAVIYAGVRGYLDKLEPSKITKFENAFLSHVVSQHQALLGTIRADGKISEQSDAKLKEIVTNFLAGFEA

Tests used:
Assay in all cases: log2 fold change, soluble protein after heating vs DMSO (PISA); higher = thermal stabilisation; K562 cells, 10 uM, 30 min; active = over 0.2 and 3.5 SD of the protein, either way, in both replicates (recomputed)
erlotinib = compound: C#Cc1cccc(Nc2ncnc3cc(OCCOC)c(OCCOC)cc23)c1 [erlotinib]
Method in brief: (§1)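 K562 cells at 2×10^6 cells/mL were treated with 10 μM compound for 30 min. Aliquots were heated for 3 min across 48°C-58°C, pooled, and extracted in PBS with 0.5% NP-40 at 4°C; soluble protein was the supernatant after 21,000xg for 90 min. Soluble protein was quantified by TMTpro 16plex LC-MS/MS with channel sums equalised, and reported as log2 fold change in thermal stability against DMSO controls, with values from duplicates.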

[1] = compound: C/C(=N\NC(=O)C1=CC(=CC=C1)S(=O)(=O)N2CCOCC2)/C3=C(C=CC(=C3)Cl)O
Method in brief: as §1

[2] = compound: C1=CC(=C(C=C1Cl)C2=NC3=NC=CN=C3C(=N2)NC4=CC=NC=C4)F
Method in brief: as §1

[3] = compound: C1=CC(=CC=C1C2=NC3=C(N2)C=C(C=C3)C(=O)N)OC4=CC=C(C=C4)Cl
Method in brief: as §1

[4] = compound: C1=CC2=C(C=CC(=C2)/C=C\3/C(=O)NC(=NCC4=CC=CS4)S3)N=C1
Method in brief: as §1

[5] = compound: C1=CC2=NC=CN=C2C=C1/C=C/3\C(=O)NC(=O)S3
Method in brief: as §1

[6] = compound: C1=CC=C(C=C1)C2=NC(=C(N2)C3=CC=NC=C3)C4=CC(=C(C=C4)Cl)O
Method in brief: as §1

[7] = compound: C1=CC=C2C(=C1)C3=NNC4=CC=CC(=C43)C2=O
Method in brief: as §1

[8] = compound: C1CCN(C1)C(=O)NC2=CC=CC(=C2)NC3=NC=C(C(=N3)NCCC4=CN=CN4)Br
Method in brief: as §1

[9] = compound: C1CN(CCC1(CC2=CC=C(C=C2)Cl)N)C3=NC=NC4=C3C=CN4
Method in brief: as §1

IRAK-1-4 Inhibitor I = compound: C1COCCN1CCN2C3=CC=CC=C3N=C2NC(=O)C4=CC(=CC=C4)[N+](=O)[O-] [IRAK-1-4 Inhibitor I]
Method in brief: as §1

ibrutinib = compound: C=CC(=O)N1CCC[C@@H](n2nc(-c3ccc(Oc4ccccc4)cc3)c3c(N)ncnc32)C1 [ibrutinib]
Method in brief: as §1

[10] = compound: CC(=O)c1cnc2ccc(-c3cc(Cl)c(O)c(Cl)c3)nc2c1N[C@H]1CC[C@H](CN(C)C)CC1
Method in brief: as §1

ralimetinib = compound: CC(C)(C)Cn1c(N)nc2ccc(-c3[nH]c(C(C)(C)C)nc3-c3ccc(F)cc3)nc21 [ralimetinib]
Method in brief: as §1

[11] = compound: CC(C)(O)CC(=O)NCCn1ccc2ncnc(Nc3ccc(Oc4cccc(C(F)(F)F)c4)c(Cl)c3)c21
Method in brief: as §1

[12] = compound: CC(C)C1=C2N=C(C=C(N2N=C1)NCC3=CC=CC=C3)NCCCCCCN
Method in brief: as §1

[13] = compound: CC(C)C[C@@H](C=O)NC(=O)[C@H](CC(C)C)NC(=O)[C@H](CC(C)C)NC(=O)OCc1ccccc1
Method in brief: as §1

pinometostat = compound: CC(C)N(C[C@H]1O[C@@H](n2cnc3c(N)ncnc32)[C@H](O)[C@@H]1O)[C@H]1C[C@@H](CCc2nc3cc(C(C)(C)C)ccc3[nH]2)C1 [pinometostat]
Method in brief: as §1

[14] = compound: CC1=C(C(CC(=O)N1)C2=CC=C(C=C2)C(F)(F)F)C(=O)NC3=C(C=C4C(=C3)C=NN4)F
Method in brief: as §1

[15] = compound: CC1=C(C2=C(C=C1)C(=O)C3=CC=CC=C3N2CCCN)C
Method in brief: as §1

Measured: log2 fold change

ATP11C (UniProt Q8NB49)
inactive: erlotinib 0.024 | [1] -0.017 | [2] 0.028 | [3] 0.029 | [4] 0.051 | [5] 0.009 | [6] 0.066 | [7] -0.051 | [8] -0.046 | [9] 0.123 | IRAK-1-4 Inhibitor I 0.023 | ibrutinib 0.07 | [10] -0.034 | ralimetinib -0.015 | [11] -0.038 | [12] -0.028 | [13] 0.005 | pinometostat 0.013 | [14] -0.01 | [15] 0.041

ASCC3 (UniProt Q8N3C0)
inactive: erlotinib 0.093 | [1] 0.006 | [2] -0.419 | [3] -0.037 | [4] 0.147 | [5] -0.228 | [6] -0.051 | [7] -0.003 | [8] 0.067 | [9] -0.212 | IRAK-1-4 Inhibitor I -0.092 | ibrutinib 0.057 | [10] 0.008 | ralimetinib 0.089 | [11] 0.01 | [12] 0.007 | [13] 0.216 | pinometostat 0.08 | [14] -0.082 | [15] 0

ARNT (UniProt P27540)
inactive: erlotinib 0.065 | [1] -0.089 | [2] -0.131 | [3] -0.012 | [4] 0.009 | [5] -0.048 | [6] -0.048 | [7] -0.019 | [8] -0.01 | [9] -0.064 | IRAK-1-4 Inhibitor I 0.046 | ibrutinib -0.039 | [10] 0.066 | ralimetinib 0.067 | [11] -0.024 | [12] -0.032 | [13] 0.036 | pinometostat 0.112 | [14] 0.051 | [15] 0.093

ATP6V1G1 (UniProt O75348)
inactive: erlotinib 0.027 | [1] -0.041 | [2] -0.017 | [3] 0.02 | [4] 0.015 | [5] -0.008 | [6] -0.12 | [7] 0.016 | [8] -0.024 | [9] -0.01 | IRAK-1-4 Inhibitor I 0.006 | ibrutinib -0.006 | [10] -0.021 | ralimetinib 0 | [11] 0.038 | [12] -0.099 | [13] 0.037 | pinometostat 0.016 | [14] 0.021 | [15] -0.011

ARPC5L (UniProt Q9BPX5)
inactive: erlotinib 0.038 | [1] -0.007 | [2] -0.02 | [3] -0.069 | [4] 0 | [5] -0.01 | [6] 0.004 | [7] -0.009 | [8] 0.002 | [9] -0.036 | IRAK-1-4 Inhibitor I 0.02 | ibrutinib -0.006 | [10] 0.014 | ralimetinib -0.08 | [11] -0.008 | [12] 0.171 | [13] -0.006 | pinometostat -0.088 | [14] -0.015 | [15] 0.004

ATP5MPL (UniProt P56378)
inactive: erlotinib -0.027 | [1] 0 | [2] 0.232 | [3] 0.025 | [4] 0.007 | [5] 0.032 | [6] 0.052 | [7] 0.063 | [8] 0.013 | [9] 0.036 | IRAK-1-4 Inhibitor I 0.08 | ibrutinib -0.02 | [10] -0.018 | ralimetinib -0.023 | [11] -0.006 | [12] 0.125 | [13] -0.05 | pinometostat 0.118 | [14] -0.006 | [15] 0.046

ATP5PO (UniProt P48047)
inactive: erlotinib -0.045 | [1] -0.05 | [2] 0.055 | [3] -0.012 | [4] -0.025 | [5] -0.021 | [6] -0.001 | [7] 0.007 | [8] 0.04 | [9] 0.043 | IRAK-1-4 Inhibitor I 0.069 | ibrutinib 0.012 | [10] 0.031 | ralimetinib 0.052 | [11] -0.011 | [12] 0.036 | [13] 0.028 | pinometostat -0.021 | [14] 0.004 | [15] 0.009

ASMTL (UniProt O95671)
inactive: erlotinib 0.223 | [1] 0.059 | [2] 0.223 | [3] -0.075 | [4] 0.067 | [5] -0.167 | [6] -0.239 | [7] 0.025 | [8] 0.071 | [9] -0.219 | IRAK-1-4 Inhibitor I 0.017 | ibrutinib -0.022 | [10] -0.014 | ralimetinib -0.118 | [11] -0.072 | [12] -0.213 | [13] 0.218 | pinometostat 0.008 | [14] 0.102 | [15] -0.155

ARPC5 (UniProt O15511)
inactive: erlotinib 0 | [1] -0.003 | [2] 0.015 | [3] -0.008 | [4] -0.017 | [5] 0.022 | [6] 0.003 | [7] -0.016 | [8] -0.014 | [9] -0.012 | IRAK-1-4 Inhibitor I 0.022 | ibrutinib -0.001 | [10] 0.023 | ralimetinib 0.002 | [11] 0.036 | [12] 0.141 | [13] -0.029 | pinometostat -0.036 | [14] -0.007 | [15] 0.071

ASF1B (UniProt Q9NVP2)
inactive: erlotinib -0.124 | [1] 0.127 | [2] -0.055 | [3] 0.009 | [4] 0.236 | [5] 0.009 | [6] -0.022 | [7] -0.089 | [8] -0.053 | [9] 0.036 | IRAK-1-4 Inhibitor I 0.017 | ibrutinib -0.021 | [10] -0.114 | ralimetinib 0.329 | [11] 0.227 | [12] -0.285 | [13] -0.062 | pinometostat 0.108 | [14] 0.128 | [15] 0.165

ATP5MF (UniProt P56134)
inactive: erlotinib 0.036 | [1] -0.008 | [2] 0.008 | [3] 0.005 | [4] 0.004 | [5] 0.047 | [6] -0.009 | [7] -0.045 | [8] 0.02 | [9] 0.025 | IRAK-1-4 Inhibitor I 0.03 | ibrutinib 0.011 | [10] -0.009 | ralimetinib -0.024 | [11] 0.006 | [12] -0.012 | [13] 0.001 | pinometostat 0.022 | [14] -0.033 | [15] 0.023

Random excerpt: 2 records from the list.
ATP5MPL (UniProt P56378)
inactive: erlotinib -0.027 | [1] 0 | [2] 0.232 | [3] 0.025 | [4] 0.007 | [5] 0.032 | [6] 0.052 | [7] 0.063 | [8] 0.013 | [9] 0.036 | IRAK-1-4 Inhibitor I 0.08 | ibrutinib -0.02 | [10] -0.018 | ralimetinib -0.023 | [11] -0.006 | [12] 0.125 | [13] -0.05 | pinometostat 0.118 | [14] -0.006 | [15] 0.046

ATP5MF (UniProt P56134)
inactive: erlotinib 0.036 | [1] -0.008 | [2] 0.008 | [3] 0.005 | [4] 0.004 | [5] 0.047 | [6] -0.009 | [7] -0.045 | [8] 0.02 | [9] 0.025 | IRAK-1-4 Inhibitor I 0.03 | ibrutinib 0.011 | [10] -0.009 | ralimetinib -0.024 | [11] 0.006 | [12] -0.012 | [13] 0.001 | pinometostat 0.022 | [14] -0.033 | [15] 0.023

Next part.

ARL15 (UniProt Q9NXU5)
inactive: erlotinib 0.039 | [1] 0.079 | [2] 0.08 | [3] -0.036 | [4] -0.01 | [5] 0.005 | [6] 0.057 | [7] 0.03 | [8] -0.14 | [9] 0.075 | IRAK-1-4 Inhibitor I 0.075 | ibrutinib 0.041 | [10] 0.012 | ralimetinib -0.06 | [11] -0.045 | [12] 0.013 | [13] -0.022 | pinometostat -0.008 | [14] -0.001 | [15] 0.101

ARL6IP5 (UniProt O75915)
inactive: erlotinib -0.013 | [1] -0.031 | [2] 0.04 | [3] 0.023 | [4] 0.014 | [5] 0.043 | [6] -0.029 | [7] -0.032 | [8] 0.026 | [9] 0.061 | IRAK-1-4 Inhibitor I -0.002 | ibrutinib -0.043 | [10] 0.019 | ralimetinib -0.06 | [11] 0.006 | [12] -0.144 | [13] 0.004 | pinometostat -0.042 | [14] -0.029 | [15] -0.01

ATP6V1B2 (UniProt P21281)
inactive: erlotinib -0.004 | [1] 0.007 | [2] -0.004 | [3] 0.018 | [4] -0.025 | [5] 0.007 | [6] -0.102 | [7] 0.022 | [8] -0.031 | [9] 0.011 | IRAK-1-4 Inhibitor I 0.03 | ibrutinib 0.007 | [10] -0.002 | ralimetinib -0.004 | [11] -0.025 | [12] -0.161 | [13] 0.035 | pinometostat 0.008 | [14] 0.032 | [15] -0.012

ATP5F1A (UniProt P25705)
inactive: erlotinib -0.008 | [1] -0.044 | [2] 0.002 | [3] -0.008 | [4] -0.026 | [5] 0.002 | [6] -0.04 | [7] 0.035 | [8] 0.031 | [9] 0.037 | IRAK-1-4 Inhibitor I 0.027 | ibrutinib -0.023 | [10] 0.021 | ralimetinib -0.018 | [11] 0.028 | [12] 0.057 | [13] 0.055 | pinometostat -0.035 | [14] 0.016 | [15] -0.003
